According to the supplement of paper PMC3334620:
In all, about 33,000 sequences were measured (“E-score (-0.5 to 0.5)”: median about -8e-05, highest 2% from about 0.23 on). Some of the results follow.

biological target: T1, Nrg2 (UniProt P38082); experiment: PBM E-score (8-mer binding enrichment) (E-score (-0.5 to 0.5)); higher = stronger / more preferred TF binding; details: protein concentration: 100 nM; construct: GST-full length
T1 sequence: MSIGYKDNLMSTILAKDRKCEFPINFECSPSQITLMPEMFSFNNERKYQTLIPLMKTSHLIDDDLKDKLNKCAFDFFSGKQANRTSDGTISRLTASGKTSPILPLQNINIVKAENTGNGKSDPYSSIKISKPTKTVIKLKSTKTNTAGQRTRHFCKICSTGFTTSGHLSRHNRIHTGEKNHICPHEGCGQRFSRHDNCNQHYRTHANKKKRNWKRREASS
Procedure, shortened: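 For each ungapped eight-base word taken together with its reverse complement, the Universal PBM Analysis Suite assigned an E-score. Binding data came from GST-tagged yeast transcription factors, applied at about 100-200 nM, on universal all-10-mer Agilent arrays made double-stranded by primer extension. Fluorescent anti-GST marked bound protein, and scans were normalised with masliner.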

| Sequence | PBM E-score |
| --- | --- |
| ACGGATCT | -0.128 |
| CCGGAGAC | -0.0842 |
| ACAGACCA | 0.201 |
| ATAGAACC | 0.036 |
| ACTAGTAT | 0.246 |
| CAGAGGAC | -0.0554 |
| ACTATATC | 0.182 |
| GTCGGATA | 0.0362 |
| CGAGGCCA | 0.02 |
| ATGGAGAG | -0.139 |
| CATAGCTA | -0.0383 |
| AATCTCCT | -0.09 |
| AGGCGACG | 0.122 |
| GGGGACCC | 0.143 |
| CCCGTGAC | -0.114 |
| GATTGCGC | 0.0579 |
| TCAGTCAA | -0.0607 |
| ACAGCCAA | -0.127 |
| GGCGACAA | -0.0104 |
| CGCGGAAC | 0.023 |
| CAGGGCGC | 0.228 |
| AGTGTAAG | -0.051 |
| CCCTAAGG | -0.0628 |
| ACAAGGGC | -0.063 |
| AGCGGAGA | 0.0169 |

2 records drawn at random from those above, as already listed:

| Sequence | PBM E-score |
| --- | --- |
| CGAGGCCA | 0.02 |
| ACTATATC | 0.182 |

The list goes on:

| Sequence | PBM E-score |
| --- | --- |
| ATTTTGGC | 0.207 |
| ACAGGCCA | 0.0163 |
| ACTTTAAC | -0.14 |
| ACTGGTTA | -0.0306 |
| CGTCAATC | 0.104 |
| CAGTTGTA | 0.016 |
| ATATCCCA | 0.134 |
| AGAAGTAG | -0.0895 |
| ACTCAAGG | 0.112 |
| GTACAAAA | 0.0892 |
| TACCCCGA | 0.0811 |
| CAACGTTC | -0.0822 |
| ATTTCACC | 0.00723 |
| AGGTTGGA | 0.0737 |
| CTTTCCTA | -0.13 |
| CTGTTGAA | 0.223 |
| ATCGTGTG | 0.0839 |
| CCGTTGAC | -0.109 |
| ACCGTCTC | 0.0423 |
| ACACCTAC | 0.0641 |
| ATCAAGGA | 0.0312 |
| ACCGACCA | 0.0622 |
| AAAGATCA | 0.166 |
| CCTTTCCC | -0.187 |
| ATGTAAAA | 0.0496 |

| Sequence | PBM E-score |
| --- | --- |
| ACGATTGG | -0.046 |
| CTGGTGTA | -0.173 |
| CCATCTCG | 0.109 |
| ATGCCTTC | -0.247 |
| AGGGAGCG | 0.0384 |
| AGCGGTTA | -0.17 |
| CATACCGG | -0.0888 |
| ATATTCAT | 0.0301 |
| AAAATCAG | -0.0302 |
| CTCTTATC | 0.151 |
| CTTATCAA | 0.21 |
| ATGGATTG | 0.109 |
| CAAGGTAA | 0.0476 |
| AGTACTAC | 0.118 |
| GCTCTACA | -0.0536 |
| GGCTGGCA | -0.276 |
| AGAGAAGC | 0.0414 |
| AACCATCA | -0.0599 |
| ATTCATAC | 0.238 |
| ATGCAAAT | 0.129 |
| ATGAGTGC | 0.0317 |
| CTAAAAAA | -0.0191 |
| ACAACAGG | -0.00056 |
| GATTTTAA | 0.079 |
| AGTGCGAG | -0.0426 |

| Sequence | PBM E-score |
| --- | --- |
| GACTCCTC | -0.0626 |
| AGAGGCCA | -0.107 |
| CCGGGATC | 0.109 |
| TCGTCTAA | -0.116 |
| ATCGTGGG | 0.0739 |
| AGCCCGAT | -0.0777 |
| TGTCCCAA | -0.121 |
| CGTATCTC | -0.0538 |
| ATAGTCTG | 0.0549 |
| AGCGGTAA | -0.153 |
| ACTATACG | -0.0712 |
| AGTTAGCA | 0.0695 |
| ATAGGCAC | -0.0718 |
| ACAATAGG | 0.00717 |
| ACCAGAGG | -0.102 |
| AATGCATA | 0.0781 |
| AATAAAGA | 0.0604 |
| CACAGCCC | -0.206 |
| GTGAAGGA | -0.00784 |
| CAAACCGA | -0.103 |
| ATGAACAC | -0.0153 |
| ACGAAAAT | 0.151 |
| GCAAAGAA | 0.157 |
| AAAAATTT | 0.0458 |
| AGGGCAAG | 0.114 |

| Sequence | PBM E-score |
| --- | --- |
| ATACGATG | 0.0788 |
| AACAGGGG | 0.105 |
| GCTTCGCA | -0.149 |
| GAGCGAGC | 0.099 |
| ACGTATGG | -0.0224 |
| ACTGTCTA | -0.0293 |
| ACTTCAAG | -0.0567 |
| ACTCTCAG | -0.0774 |
| GACAAGCC | 0.13 |
| CGTCGACA | 0.0529 |
| ACCCTGCT | 0.0589 |
| CATACAAG | 0.0742 |
| CCGGAAAC | -0.0132 |
| GGTCAGAA | 0.0137 |
| GGAATTAA | 0.153 |
| ATGTGTTG | 0.204 |
| CTCCGAAC | -0.132 |
| CCATGAGC | -0.047 |
| AACCCGCA | 0.0835 |
| AGGCTTGG | -0.105 |
| AGAAAGTC | 0.037 |
| ATAAATCG | 0.101 |
| GAGTCGAC | 0.141 |
| ACATAGTC | 0.055 |
| GGTTGCTA | 0.0559 |

| Sequence | PBM E-score |
| --- | --- |
| ACCTGTGC | -0.0445 |
| GTCTTCGA | -0.0435 |
| CGAGTGAG | 0.153 |
| AAGAGTGA | -0.0283 |
| TCTCCAGA | -0.179 |
| CTACCAAA | -0.113 |
| AGAACACT | 0.138 |
| GCGTCATA | 0.146 |
| GACAGGGC | 0.0492 |
| ATAGCGAG | -0.0712 |
| GACTGGGA | -0.0261 |
| AGGTCAAA | -0.0745 |
| CTCGTCGC | -0.033 |
| ACTCAGCA | 0.0463 |
| CTCCCAAC | -0.0556 |
| TAAAGGGA | 0.0314 |
| AGATACGG | -0.184 |
| AAGTCCGA | -0.0535 |
| GATATAGC | -0.0454 |
| CAAGCCCA | -0.277 |
| CAATCGAA | 0.258 |
| TAGAGGCA | 0.0443 |
| GTTTCTCA | -0.0499 |
| AACTGGTG | -0.0605 |
| CACCATCA | -0.00951 |

Some of the entries above, reformatted:
Sequence | PBM E-score
CGAGGCCA | 0.02
ATGGAGAG | -0.139
CATAGCTA | -0.0383
AATCTCCT | -0.09
AGGCGACG | 0.122
GGGGACCC | 0.143
CCCGTGAC | -0.114

Going on with the list.

| Sequence | PBM E-score |
| --- | --- |
| AAGCTGGA | -0.185 |
| GGGATGTA | 0.027 |
| AAGAGACC | -0.0175 |
| ATCCAATG | -0.099 |
| CTCATGGA | -0.102 |
| GGGGAAAC | 0.00088 |
| ACGACCGA | -0.037 |
| GTATTGAC | -0.0758 |
| GACACTCC | -0.0182 |
| CCAGGAGC | -0.287 |
| AAGAGCCA | 0.185 |
| GACACATC | -0.00378 |
| CCTTTTAA | -0.0347 |
| CTGCGATA | 0.02 |
| CCCTGCCC | -0.1 |
| GCTTTGTA | 0.143 |
| ATTGCATG | 0.15 |
| CAAGCCGC | -0.15 |
| ACTTTGAG | -0.0289 |
| AACGATCC | -0.227 |
| AGTAAATG | 0.186 |
| ACGGTACA | 0.0512 |
| ATCCCGTC | -0.0147 |
| CAGTCCTC | -0.163 |
| AAGGGGGT | -0.298 |

| Sequence | PBM E-score |
| --- | --- |
| AATGGTCG | -0.163 |
| TCATGAGA | -0.024 |
| CATGACGA | 0.0731 |
| CAAAGGAG | 0.0625 |
| AAACGTGT | -0.217 |
| ATAAAGAG | -0.0489 |
| GACGGCCA | -0.0494 |
| GCGCCGTA | 0.164 |
| CACTGATG | -0.11 |
| ATAAGTCA | 0.177 |
| TCTGAGAA | 0.0851 |
| ACTTATAA | 0.0623 |
| CAAGCCCG | -0.0516 |
| ATCGCGAG | 0.175 |
| AGTAGCAG | 0.146 |
| GATTGTAC | -0.124 |
| CCAATACA | 0.116 |
| GAAGTTAC | 0.137 |
| ATCATTCG | 0.19 |
| TACCAGCA | 0.0995 |
| CACCATAA | -0.0296 |
| GGGAGCAC | -0.271 |
| GTATTTTA | -0.125 |
| GTCTAGGA | -0.141 |
| AGGTGTGG | -0.0308 |

| Sequence | PBM E-score |
| --- | --- |
| ACCTGTGA | -0.0357 |
| AGATGGCG | 0.128 |
| TCCCAACA | 0.0892 |
| CGCTCAAG | -0.0971 |
| CCTCAACA | 0.0779 |
| ACCCAGTC | 0.0175 |
| CGAAGCAA | 0.0108 |
| CAGTTCCA | 0.0341 |
| CACACTGC | -0.0211 |
| AGTCCTAT | -0.129 |
| GGACTTAA | -0.0982 |
| AAAGTTCG | 0.127 |
| CGAACCAA | 0.012 |
| CCCGCGAG | 0.118 |
| AAAATCAC | 0.155 |
| AGTCAAGA | -0.0439 |
| AAGGTGAA | 0.073 |
| GTAGAAAC | -0.0556 |
| AACCGTAG | -0.116 |
